Results reported in publication doi:10.1101/2022.06.09.495492.

Experiments:
[1] = molecular target: GST-Tvactin (T. vaginalis); test: pull-down
[2] = molecular target: HA-TvFACPα (T. vaginalis) (UniProt A2FE30); test: co-IP

Substance	binding [1]	binding [2]
His-TvFACPα (from UniProt A2FE30)	binds	–
α-actin, endogenous (T. vaginalis) (from UniProt A0A8U0WPZ0)	–	binds

No constants are given. Whether binding was seen depends on the method and setting. A result given as binding can be weak or reduced; the word gives no strength. For some assays here: In cells and extracts the contact can be indirect.
